Compound in this test: CCc1cnccc1C(=O)Nc1cc2c(cc1F)NC(=O)CC2
Kind of test: melting temperature shift (DMSO Tm minus MBE1-treated Tm) in cellular thermal proteome profiling; higher = less thermal stabilization by MBE1 (negative = stabilized by MBE1). The following applies: A375.

By UniProt entry, the sequences of proteins in these tests, tags left out. Where a name states a change or a piece, a line headed by the entry shows the natural chain unless it says otherwise.
UniProt Q5BKZ1: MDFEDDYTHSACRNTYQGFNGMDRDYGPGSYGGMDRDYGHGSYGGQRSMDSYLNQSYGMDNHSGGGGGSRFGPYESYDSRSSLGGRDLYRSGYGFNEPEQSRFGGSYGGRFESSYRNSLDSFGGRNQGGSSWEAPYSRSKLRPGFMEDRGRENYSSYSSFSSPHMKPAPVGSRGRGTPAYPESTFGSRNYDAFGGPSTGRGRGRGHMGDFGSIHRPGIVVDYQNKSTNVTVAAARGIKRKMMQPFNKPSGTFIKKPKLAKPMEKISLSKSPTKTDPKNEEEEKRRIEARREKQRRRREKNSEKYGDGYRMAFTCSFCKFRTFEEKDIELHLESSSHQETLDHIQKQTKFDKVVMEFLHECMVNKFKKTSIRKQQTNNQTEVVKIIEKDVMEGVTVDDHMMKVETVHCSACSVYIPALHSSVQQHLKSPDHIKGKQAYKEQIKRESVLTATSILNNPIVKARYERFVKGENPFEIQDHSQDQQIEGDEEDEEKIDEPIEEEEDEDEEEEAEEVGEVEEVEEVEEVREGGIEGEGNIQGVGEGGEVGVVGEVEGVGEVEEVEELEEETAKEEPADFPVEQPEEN
UniProt Q6P4R8, whole entry: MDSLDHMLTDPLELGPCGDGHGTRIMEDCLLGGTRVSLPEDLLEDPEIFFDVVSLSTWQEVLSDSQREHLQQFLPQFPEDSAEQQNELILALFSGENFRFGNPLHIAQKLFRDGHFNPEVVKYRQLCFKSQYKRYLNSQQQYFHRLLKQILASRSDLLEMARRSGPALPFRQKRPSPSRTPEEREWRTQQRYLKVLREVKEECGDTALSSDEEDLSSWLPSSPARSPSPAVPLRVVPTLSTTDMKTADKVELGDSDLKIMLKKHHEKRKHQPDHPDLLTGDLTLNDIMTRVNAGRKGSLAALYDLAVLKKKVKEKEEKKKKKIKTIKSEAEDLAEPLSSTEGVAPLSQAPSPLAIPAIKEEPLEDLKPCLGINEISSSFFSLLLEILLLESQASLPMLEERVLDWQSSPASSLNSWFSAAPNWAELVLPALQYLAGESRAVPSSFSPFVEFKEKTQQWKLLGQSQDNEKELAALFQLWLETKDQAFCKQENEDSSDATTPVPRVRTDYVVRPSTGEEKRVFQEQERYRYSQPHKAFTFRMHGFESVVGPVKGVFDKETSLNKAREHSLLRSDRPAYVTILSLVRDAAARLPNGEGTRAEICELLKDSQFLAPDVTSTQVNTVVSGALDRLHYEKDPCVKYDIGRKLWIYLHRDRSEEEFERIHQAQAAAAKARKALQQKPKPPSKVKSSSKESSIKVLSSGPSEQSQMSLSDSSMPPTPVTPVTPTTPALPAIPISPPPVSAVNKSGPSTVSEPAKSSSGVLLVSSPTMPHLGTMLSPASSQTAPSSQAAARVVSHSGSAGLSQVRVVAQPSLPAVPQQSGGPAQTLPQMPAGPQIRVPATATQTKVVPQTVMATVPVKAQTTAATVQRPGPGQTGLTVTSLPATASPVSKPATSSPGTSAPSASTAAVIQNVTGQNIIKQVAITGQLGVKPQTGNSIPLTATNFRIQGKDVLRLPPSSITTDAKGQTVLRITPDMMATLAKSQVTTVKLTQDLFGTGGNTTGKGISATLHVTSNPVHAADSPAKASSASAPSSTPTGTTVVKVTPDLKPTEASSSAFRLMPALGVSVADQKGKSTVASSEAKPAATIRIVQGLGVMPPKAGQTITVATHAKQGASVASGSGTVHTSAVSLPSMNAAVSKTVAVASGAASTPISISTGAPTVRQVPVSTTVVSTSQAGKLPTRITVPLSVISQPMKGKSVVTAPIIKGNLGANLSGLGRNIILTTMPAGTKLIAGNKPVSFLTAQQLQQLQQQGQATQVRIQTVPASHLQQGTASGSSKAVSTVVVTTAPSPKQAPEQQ
UniProt Q6DD87: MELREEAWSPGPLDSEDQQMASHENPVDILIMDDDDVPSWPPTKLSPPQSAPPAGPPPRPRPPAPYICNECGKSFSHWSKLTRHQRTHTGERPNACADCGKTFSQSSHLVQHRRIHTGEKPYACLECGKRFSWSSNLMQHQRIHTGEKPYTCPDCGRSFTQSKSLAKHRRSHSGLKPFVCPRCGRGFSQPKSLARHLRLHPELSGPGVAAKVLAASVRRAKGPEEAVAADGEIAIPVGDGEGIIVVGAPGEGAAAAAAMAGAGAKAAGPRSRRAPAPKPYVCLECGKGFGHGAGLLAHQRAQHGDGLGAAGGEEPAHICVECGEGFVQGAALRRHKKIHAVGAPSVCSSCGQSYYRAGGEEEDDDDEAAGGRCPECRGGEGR
UniProt Q5JU69: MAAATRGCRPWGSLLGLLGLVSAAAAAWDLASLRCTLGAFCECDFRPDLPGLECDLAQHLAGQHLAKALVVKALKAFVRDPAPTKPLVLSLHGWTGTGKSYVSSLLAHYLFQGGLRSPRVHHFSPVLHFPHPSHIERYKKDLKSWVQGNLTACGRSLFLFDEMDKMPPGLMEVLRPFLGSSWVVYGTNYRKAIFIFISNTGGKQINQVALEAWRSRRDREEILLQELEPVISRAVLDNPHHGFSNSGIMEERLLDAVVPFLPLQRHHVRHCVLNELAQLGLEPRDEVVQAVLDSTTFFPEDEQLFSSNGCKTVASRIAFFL
UniProt Q69YN4: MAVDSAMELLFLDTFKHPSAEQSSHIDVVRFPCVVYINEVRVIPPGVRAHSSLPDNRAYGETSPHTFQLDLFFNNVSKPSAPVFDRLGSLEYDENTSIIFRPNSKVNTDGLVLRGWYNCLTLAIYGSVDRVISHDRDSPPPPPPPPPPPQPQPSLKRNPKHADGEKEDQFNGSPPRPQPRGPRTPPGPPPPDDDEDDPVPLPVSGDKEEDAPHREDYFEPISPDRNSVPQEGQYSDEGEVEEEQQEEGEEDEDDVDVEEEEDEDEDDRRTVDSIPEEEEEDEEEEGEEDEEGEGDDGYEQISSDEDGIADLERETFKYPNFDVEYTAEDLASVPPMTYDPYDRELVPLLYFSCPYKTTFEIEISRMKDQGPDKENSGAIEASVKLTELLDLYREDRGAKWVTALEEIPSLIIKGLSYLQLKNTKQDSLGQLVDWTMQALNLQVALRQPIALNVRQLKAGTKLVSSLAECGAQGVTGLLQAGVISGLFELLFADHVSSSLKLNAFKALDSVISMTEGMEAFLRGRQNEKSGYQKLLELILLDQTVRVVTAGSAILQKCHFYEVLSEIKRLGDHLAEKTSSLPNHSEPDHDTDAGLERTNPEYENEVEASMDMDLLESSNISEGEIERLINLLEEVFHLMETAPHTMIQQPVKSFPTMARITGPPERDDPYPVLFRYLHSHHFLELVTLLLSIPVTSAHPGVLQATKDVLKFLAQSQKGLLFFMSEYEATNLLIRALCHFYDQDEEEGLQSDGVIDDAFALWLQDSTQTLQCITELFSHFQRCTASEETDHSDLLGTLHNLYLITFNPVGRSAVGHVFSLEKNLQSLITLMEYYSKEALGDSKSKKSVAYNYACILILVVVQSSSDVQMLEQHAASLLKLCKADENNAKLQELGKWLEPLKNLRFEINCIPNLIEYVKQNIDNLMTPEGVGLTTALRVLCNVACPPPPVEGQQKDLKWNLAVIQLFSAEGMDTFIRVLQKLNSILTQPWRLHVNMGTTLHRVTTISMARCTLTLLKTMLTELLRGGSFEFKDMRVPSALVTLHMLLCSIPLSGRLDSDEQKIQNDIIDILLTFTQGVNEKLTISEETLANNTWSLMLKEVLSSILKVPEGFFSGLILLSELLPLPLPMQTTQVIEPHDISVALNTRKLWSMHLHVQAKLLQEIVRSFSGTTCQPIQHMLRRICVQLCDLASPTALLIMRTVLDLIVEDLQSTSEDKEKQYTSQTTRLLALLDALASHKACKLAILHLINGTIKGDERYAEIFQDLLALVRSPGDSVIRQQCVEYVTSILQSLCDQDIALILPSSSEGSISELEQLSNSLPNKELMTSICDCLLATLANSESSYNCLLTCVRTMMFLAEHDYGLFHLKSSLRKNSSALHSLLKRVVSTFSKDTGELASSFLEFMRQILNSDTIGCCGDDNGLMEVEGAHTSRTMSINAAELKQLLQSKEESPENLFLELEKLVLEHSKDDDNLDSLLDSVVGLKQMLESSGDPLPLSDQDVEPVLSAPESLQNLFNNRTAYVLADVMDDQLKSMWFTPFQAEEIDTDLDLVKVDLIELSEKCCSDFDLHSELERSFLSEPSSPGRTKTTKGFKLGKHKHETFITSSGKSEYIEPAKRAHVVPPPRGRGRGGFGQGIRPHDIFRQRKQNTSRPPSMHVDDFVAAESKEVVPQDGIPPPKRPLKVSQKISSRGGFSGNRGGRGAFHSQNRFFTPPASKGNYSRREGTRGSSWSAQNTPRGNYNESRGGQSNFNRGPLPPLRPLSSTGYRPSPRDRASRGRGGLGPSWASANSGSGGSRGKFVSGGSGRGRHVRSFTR
UniProt Q659A1: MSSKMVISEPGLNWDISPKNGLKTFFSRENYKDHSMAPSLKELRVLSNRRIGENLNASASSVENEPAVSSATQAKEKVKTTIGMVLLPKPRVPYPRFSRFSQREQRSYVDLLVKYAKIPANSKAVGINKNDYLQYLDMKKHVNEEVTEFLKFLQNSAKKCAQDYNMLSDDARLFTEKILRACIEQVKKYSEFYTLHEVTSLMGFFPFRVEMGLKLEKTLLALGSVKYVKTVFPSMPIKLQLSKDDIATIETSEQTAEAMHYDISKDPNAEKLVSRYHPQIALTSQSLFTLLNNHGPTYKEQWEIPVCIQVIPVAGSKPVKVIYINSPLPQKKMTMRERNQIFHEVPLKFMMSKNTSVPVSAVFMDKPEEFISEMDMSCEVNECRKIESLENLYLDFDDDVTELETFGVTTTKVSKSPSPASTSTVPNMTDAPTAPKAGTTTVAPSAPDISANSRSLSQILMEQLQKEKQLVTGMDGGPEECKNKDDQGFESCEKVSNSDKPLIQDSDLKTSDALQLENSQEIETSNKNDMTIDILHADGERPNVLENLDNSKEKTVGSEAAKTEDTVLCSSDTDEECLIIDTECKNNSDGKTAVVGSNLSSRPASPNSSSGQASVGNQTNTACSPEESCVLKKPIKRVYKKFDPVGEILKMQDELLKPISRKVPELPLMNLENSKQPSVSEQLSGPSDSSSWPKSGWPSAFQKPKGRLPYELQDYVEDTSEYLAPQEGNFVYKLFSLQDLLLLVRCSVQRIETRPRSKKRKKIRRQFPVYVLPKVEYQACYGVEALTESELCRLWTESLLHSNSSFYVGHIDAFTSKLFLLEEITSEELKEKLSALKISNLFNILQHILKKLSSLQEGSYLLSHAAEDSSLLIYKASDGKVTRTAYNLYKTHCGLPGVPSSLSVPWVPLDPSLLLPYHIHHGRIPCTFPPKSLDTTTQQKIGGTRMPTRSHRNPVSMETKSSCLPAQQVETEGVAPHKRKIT
UniProt Q6N069: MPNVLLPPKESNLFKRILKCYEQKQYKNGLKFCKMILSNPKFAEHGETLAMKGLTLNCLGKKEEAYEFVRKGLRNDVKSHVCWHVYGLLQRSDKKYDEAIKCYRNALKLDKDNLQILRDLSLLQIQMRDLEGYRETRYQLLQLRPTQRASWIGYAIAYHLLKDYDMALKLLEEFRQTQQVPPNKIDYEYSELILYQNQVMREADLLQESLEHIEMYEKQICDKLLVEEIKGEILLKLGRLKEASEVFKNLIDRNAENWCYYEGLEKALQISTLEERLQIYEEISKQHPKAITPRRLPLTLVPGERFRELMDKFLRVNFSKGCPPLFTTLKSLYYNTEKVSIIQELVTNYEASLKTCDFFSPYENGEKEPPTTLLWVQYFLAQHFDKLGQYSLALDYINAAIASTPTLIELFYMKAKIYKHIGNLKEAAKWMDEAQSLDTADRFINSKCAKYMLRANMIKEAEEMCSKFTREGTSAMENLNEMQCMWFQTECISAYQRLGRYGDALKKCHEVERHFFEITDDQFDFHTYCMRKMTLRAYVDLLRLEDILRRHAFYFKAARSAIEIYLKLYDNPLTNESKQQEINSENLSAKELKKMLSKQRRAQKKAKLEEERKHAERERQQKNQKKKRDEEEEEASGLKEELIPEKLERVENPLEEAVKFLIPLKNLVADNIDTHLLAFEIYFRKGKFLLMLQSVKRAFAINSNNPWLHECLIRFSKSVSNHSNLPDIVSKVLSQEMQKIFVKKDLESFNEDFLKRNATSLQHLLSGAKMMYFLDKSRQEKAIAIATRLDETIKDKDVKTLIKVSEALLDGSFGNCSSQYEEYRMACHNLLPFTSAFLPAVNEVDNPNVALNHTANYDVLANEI
UniProt Q6IQ22: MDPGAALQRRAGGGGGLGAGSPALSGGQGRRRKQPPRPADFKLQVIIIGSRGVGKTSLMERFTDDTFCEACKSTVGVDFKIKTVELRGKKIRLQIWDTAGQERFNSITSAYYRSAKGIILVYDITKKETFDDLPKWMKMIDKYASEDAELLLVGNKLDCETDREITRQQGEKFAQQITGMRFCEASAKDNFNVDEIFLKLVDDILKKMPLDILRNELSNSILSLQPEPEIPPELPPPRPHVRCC

The list shows a part of the results. Single values of this set are uncertain.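 Many melting curves are irregular; where none melted, Tm was taken as 64 °C.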

PSMG4 (UniProt Q5JS54): the melting temperature shift reads like this: (MBE1 concentration: 100 nM) 0.0118 °C; (MBE1 concentration: 1 uM) 1.17 °C.

Regarding LIN54 (UniProt Q6MZP7), the melting temperature shift is 0.577 °C (MBE1 concentration: 100 nM) and -0.769 °C (MBE1 concentration: 1 uM).

Take RNF187 (UniProt Q5TA31): the melting temperature shift reads like this: (MBE1 concentration: 100 nM) -0.0805 °C; (MBE1 concentration: 1 uM) -1.57 °C.

Take UniProt Q5T011: the melting temperature shift runs as follows: (MBE1 concentration: 100 nM) 1.35 °C; (MBE1 concentration: 1 uM) 1.25 °C.

Turning to SAMD4B (UniProt Q5PRF9), the melting temperature shift worked out at 0.55 °C (MBE1 concentration: 100 nM) and 0.565 °C (MBE1 concentration: 1 uM).

On to DHRS7B (UniProt Q6IAN0), for which the melting temperature shift came to 0.965 °C (MBE1 concentration: 100 nM) and 0.861 °C (MBE1 concentration: 1 uM).

UniProt Q5T7W0: the melting temperature shift is, setting by setting: (MBE1 concentration: 100 nM) -3.76 °C; (MBE1 concentration: 1 uM) -0.305 °C.

Regarding CNNM4 (UniProt Q6P4Q7), the melting temperature shift runs as follows: (MBE1 concentration: 100 nM) 1.15 °C; (MBE1 concentration: 1 uM) 0.694 °C.

Take UniProt Q6P1R3: the melting temperature shift was 0.892 °C (MBE1 concentration: 100 nM) and 0.429 °C (MBE1 concentration: 1 uM).

Consider UniProt Q674X7, for which the melting temperature shift (MBE1 concentration: 100 nM) was -6.59 °C and the melting temperature shift (MBE1 concentration: 1 uM) was -1.44 °C.

UniProt Q6IPU0: the melting temperature shift by setting is: (MBE1 concentration: 100 nM) -0.999 °C; (MBE1 concentration: 1 uM) -0.0805 °C.

Take UniProt Q5JSJ4: the melting temperature shift was -1.11 °C (MBE1 concentration: 100 nM) and -2.78 °C (MBE1 concentration: 1 uM).

In the case of ZNF326 (UniProt Q5BKZ1), the melting temperature shift is -0.173 °C (MBE1 concentration: 100 nM) and -0.218 °C (MBE1 concentration: 1 uM).

Turning to GPR107 (UniProt Q5VW38), the melting temperature shift (MBE1 concentration: 100 nM) is -2.55 °C and the melting temperature shift (MBE1 concentration: 1 uM) was -3.23 °C.

Regarding DDI2 (UniProt Q5TDH0), the melting temperature shift runs as follows: (MBE1 concentration: 100 nM) -0.832 °C; (MBE1 concentration: 1 uM) 0.0855 °C.

As to VPS53 (UniProt Q5VIR6), the melting temperature shift (MBE1 concentration: 100 nM) is -0.395 °C and the melting temperature shift (MBE1 concentration: 1 uM) is -0.824 °C.

LMBRD2 (UniProt Q68DH5): the melting temperature shift was -1.53 °C (MBE1 concentration: 100 nM) and -1.58 °C (MBE1 concentration: 1 uM).

Regarding STRIP1 (UniProt Q5VSL9), the melting temperature shift by setting is: (MBE1 concentration: 100 nM) 0.165 °C; (MBE1 concentration: 1 uM) 1.15 °C.

With SFXN4 (UniProt Q6P4A7), the melting temperature shift was -2.49 °C (MBE1 concentration: 100 nM) and 0.208 °C (MBE1 concentration: 1 uM).

Take TNS2 (UniProt Q63HR2): the melting temperature shift runs as follows: (MBE1 concentration: 100 nM) -0.743 °C; (MBE1 concentration: 1 uM) -0.108 °C.

For the target UniProt Q6P4R8, the melting temperature shift runs as follows: (MBE1 concentration: 100 nM) 0.128 °C; (MBE1 concentration: 1 uM) 0.41 °C.

With UniProt Q5EBM0, the melting temperature shift runs as follows: (MBE1 concentration: 100 nM) 0.369 °C; (MBE1 concentration: 1 uM) 3.67 °C.

Turning to ZNF787 (UniProt Q6DD87), the melting temperature shift is, setting by setting: (MBE1 concentration: 100 nM) -3.87 °C; (MBE1 concentration: 1 uM) -3.15 °C.

As to RIF1 (UniProt Q5UIP0), the melting temperature shift runs as follows: (MBE1 concentration: 100 nM) -0.301 °C; (MBE1 concentration: 1 uM) -0.282 °C.

Consider UniProt Q5TF21, for which the melting temperature shift runs as follows: (MBE1 concentration: 100 nM) -0.385 °C; (MBE1 concentration: 1 uM) -2.53 °C.

Turning to AARS2 (UniProt Q5JTZ9), the melting temperature shift was -0.878 °C (MBE1 concentration: 100 nM) and -0.746 °C (MBE1 concentration: 1 uM).

As to RALGAPA1 (UniProt Q6GYQ0), the melting temperature shift reads like this: (MBE1 concentration: 100 nM) -1.07 °C; (MBE1 concentration: 1 uM) -0.501 °C.

On to EOGT (UniProt Q5NDL2), for which the melting temperature shift reads like this: (MBE1 concentration: 100 nM) 1.03 °C; (MBE1 concentration: 1 uM) -0.805 °C.

For the target NDUFAF5 (UniProt Q5TEU4), the melting temperature shift runs as follows: (MBE1 concentration: 100 nM) -1.07 °C; (MBE1 concentration: 1 uM) 1.14 °C.

As to UniProt Q5JU69, the melting temperature shift is -0.946 °C (MBE1 concentration: 100 nM) and 0.287 °C (MBE1 concentration: 1 uM).

Take DCAF15 (UniProt Q66K64): the melting temperature shift (MBE1 concentration: 100 nM) is -0.189 °C and the melting temperature shift (MBE1 concentration: 1 uM) was determined as 0.586 °C.

For ZCCHC8 (UniProt Q6NZY4), the melting temperature shift (MBE1 concentration: 100 nM) was -0.306 °C and the melting temperature shift (MBE1 concentration: 1 uM) was found to be 0.232 °C.

As for WWC2 (UniProt Q6AWC2), the melting temperature shift is -2.61 °C (MBE1 concentration: 100 nM) and -0.214 °C (MBE1 concentration: 1 uM).

As for ZDHHC20 (UniProt Q5W0Z9), the melting temperature shift was -2.77 °C (MBE1 concentration: 100 nM) and -2.97 °C (MBE1 concentration: 1 uM).

As to KIAA1429 (UniProt Q69YN4), the melting temperature shift reads like this: (MBE1 concentration: 100 nM) -0.83 °C; (MBE1 concentration: 1 uM) -0.0961 °C.

As to UniProt Q659A1, the melting temperature shift is -2.17 °C (MBE1 concentration: 100 nM) and 0.0413 °C (MBE1 concentration: 1 uM).

With UniProt Q5SY16, the melting temperature shift (MBE1 concentration: 100 nM) worked out at 0.144 °C and the melting temperature shift (MBE1 concentration: 1 uM) was -0.138 °C.

Turning to WDR44 (UniProt Q5JSH3), the melting temperature shift is, setting by setting: (MBE1 concentration: 100 nM) -0.635 °C; (MBE1 concentration: 1 uM) 0.508 °C.

In the case of NHSL1 (UniProt Q5SYE7), the melting temperature shift (MBE1 concentration: 100 nM) was -0.476 °C and the melting temperature shift (MBE1 concentration: 1 uM) was found to be 0.235 °C.

Consider HAUS3 (UniProt Q68CZ6), for which the melting temperature shift (MBE1 concentration: 100 nM) is -0.612 °C and the melting temperature shift (MBE1 concentration: 1 uM) was -0.428 °C.

Turning to NAA16 (UniProt Q6N069), the melting temperature shift is 0.0611 °C (MBE1 concentration: 100 nM) and -0.354 °C (MBE1 concentration: 1 uM).

As to RAB12 (UniProt Q6IQ22), the melting temperature shift is, setting by setting: (MBE1 concentration: 100 nM) -0.833 °C; (MBE1 concentration: 1 uM) 1.35 °C.

Turning to NADSYN1 (UniProt Q6IA69), the melting temperature shift by setting is: (MBE1 concentration: 100 nM) -0.971 °C; (MBE1 concentration: 1 uM) -0.906 °C.

Regarding FNBP1L (UniProt Q5T0N5), the melting temperature shift is 0.617 °C (MBE1 concentration: 100 nM) and 0.134 °C (MBE1 concentration: 1 uM).

In the case of DAB2IP (UniProt Q5VWQ8), the melting temperature shift is -1.94 °C (MBE1 concentration: 100 nM) and -0.999 °C (MBE1 concentration: 1 uM).

For the target TTI2 (UniProt Q6NXR4), the melting temperature shift is 0.354 °C (MBE1 concentration: 100 nM) and -0.0244 °C (MBE1 concentration: 1 uM).

With UniProt Q5VYK3, the melting temperature shift is 0.0612 °C (MBE1 concentration: 100 nM) and -0.0141 °C (MBE1 concentration: 1 uM).

As for DNAJC21 (UniProt Q5F1R6), the melting temperature shift reads like this: (MBE1 concentration: 100 nM) -6.32 °C; (MBE1 concentration: 1 uM) -2.64 °C.

As to CEP78 (UniProt Q5JTW2), the melting temperature shift was -1.75 °C (MBE1 concentration: 100 nM) and -1.84 °C (MBE1 concentration: 1 uM).

As to ARID2 (UniProt Q68CP9), the melting temperature shift (MBE1 concentration: 100 nM) was -0.282 °C and the melting temperature shift (MBE1 concentration: 1 uM) was -0.641 °C.

On to RPRD2 (UniProt Q5VT52), for which the melting temperature shift (MBE1 concentration: 100 nM) was -0.256 °C and the melting temperature shift (MBE1 concentration: 1 uM) was -0.404 °C.

In the case of HECTD3 (UniProt Q5T447), the melting temperature shift is, setting by setting: (MBE1 concentration: 100 nM) 1.05 °C; (MBE1 concentration: 1 uM) 0.611 °C.

For the origin of these results see the supplement of paper PMC12595434, “Development of retinoid nuclear receptor pathway antagonists through targeting aldehyde dehydrogenase 1A3” (iScience, 2025).
